The list shows a part of the results.
Legend:
Assay in all cases: glycan array binding signal (z-score within array); higher = stronger binding
Settings in all cases: glycan notation: IUPAC condensed, linker removed; mutation: R276L
[1] = biological target: Gal(b1-3)GlcNAc(b1-6)GalNAc
Procedure, shortened: (§1)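 Glycan array data were curated from 3228 arrays in the Consortium for Functional Glycomics database and kept only where the protein sequence was available. Glycan names were converted to IUPAC-condensed notation, and columns mapping to the same glycan were averaged. The binding signal is a within-array Z-score, averaged across arrays of the same protein sequence at different concentrations or buffers and across linkers. Negative Z-scores can be read as non-binding.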

[2] = biological target: Gal(b1-3)GlcNAc(b1-6)[Gal(b1-3)]GalNAc
Procedure, shortened: as §1

Gal(b1-3)GlcNAc6S = biological target: Gal(b1-3)GlcNAc6S
Procedure, shortened: as §1

[3] = biological target: Gal(b1-3)[Fuc(a1-4)]GlcNAc
Procedure, shortened: as §1

[4] = biological target: Gal(b1-3)[Fuc(a1-4)]GlcNAc(b1-2)Man
Procedure, shortened: as §1

[5] = biological target: Gal(b1-3)[Fuc(a1-4)]GlcNAc(b1-2)Man(a1-3)[Gal(b1-3)[Fuc(a1-4)]GlcNAc(b1-2)Man(a1-6)]Man(b1-4)GlcNAc(b1-4)[Fuc(a1-6)]GlcNAc
Procedure, shortened: as §1

[6] = biological target: Gal(b1-3)[Fuc(a1-4)]GlcNAc(b1-3)Gal(b1-3)[Fuc(a1-4)]GlcNAc
Procedure, shortened: as §1

[7] = biological target: Gal(b1-3)[Fuc(a1-4)]GlcNAc(b1-3)Gal(b1-4)[Fuc(a1-3)]GlcNAc
Procedure, shortened: as §1

[8] = biological target: Gal(b1-3)[Fuc(a1-4)]GlcNAc(b1-6)GalNAc
Procedure, shortened: as §1

[9] = biological target: Gal(b1-3)[GlcNAc(b1-6)]GalNAc
Procedure, shortened: as §1

[10] = biological target: Gal(b1-3)[Neu5Ac(a2-6)]GalNAc
Procedure, shortened: as §1

[11] = biological target: Gal(b1-3)[Neu5Ac(a2-6)]GlcNAc(b1-4)Gal(b1-4)Glc
Procedure, shortened: as §1

[12] = biological target: Gal(b1-3)[Neu5Ac(b2-6)]GalNAc
Procedure, shortened: as §1

Gal(b1-4)Gal = biological target: Gal(b1-4)Gal
Procedure, shortened: as §1

[13] = biological target: Gal(b1-4)GalNAc(a1-3)[Fuc(a1-2)]Gal(b1-4)GlcNAc
Procedure, shortened: as §1

[14] = biological target: Gal(b1-4)GalNAc(b1-3)[Fuc(a1-2)]Gal(b1-4)GlcNAc
Procedure, shortened: as §1

Gal(b1-4)Glc = biological target: Gal(b1-4)Glc
Procedure, shortened: as §1

Gal(b1-4)Glc6S = biological target: Gal(b1-4)Glc6S
Procedure, shortened: as §1

Gal(b1-4)GlcNAc = biological target: Gal(b1-4)GlcNAc
Procedure, shortened: as §1

[15] = biological target: Gal(b1-4)GlcNAc(a1-6)Gal(b1-4)GlcNAc
Procedure, shortened: as §1

Gal(b1-4)GlcNAc(b1-2)Man = biological target: Gal(b1-4)GlcNAc(b1-2)Man
Procedure, shortened: as §1

[16] = biological target: Gal(b1-4)GlcNAc(b1-2)Man(a1-3)Man(b1-4)GlcNAc(b1-4)GlcNAc
Procedure, shortened: as §1

[17] = biological target: Gal(b1-4)GlcNAc(b1-2)Man(a1-3)[Gal(b1-4)GlcNAc(b1-2)Man(a1-6)]Man(b1-4)GlcNAc(b1-4)GlcNAc
Procedure, shortened: as §1

[18] = biological target: Gal(b1-4)GlcNAc(b1-2)Man(a1-3)[Gal(b1-4)GlcNAc(b1-2)Man(a1-6)]Man(b1-4)GlcNAc(b1-4)[Fuc(a1-6)]GlcNAc
Procedure, shortened: as §1

[19] = biological target: Gal(b1-4)GlcNAc(b1-2)Man(a1-3)[Gal(b1-4)GlcNAc(b1-2)Man(a1-6)][Gal(b1-4)GlcNAc(b1-4)]Man(b1-4)GlcNAc(b1-4)[Fuc(a1-6)]GlcNAc
Procedure, shortened: as §1

[20] = biological target: Gal(b1-4)GlcNAc(b1-2)Man(a1-3)[Gal(b1-4)GlcNAc(b1-2)Man(a1-6)][GlcNAc(b1-4)]Man(b1-4)GlcNAc(b1-4)[Fuc(a1-6)]GlcNAc
Procedure, shortened: as §1

[21] = biological target: Gal(b1-4)GlcNAc(b1-2)Man(a1-3)[GlcNAc(b1-2)Man(a1-6)]Man(b1-4)GlcNAc(b1-4)GlcNAc
Procedure, shortened: as §1

[22] = biological target: Gal(b1-4)GlcNAc(b1-2)Man(a1-3)[GlcNAc(b1-4)][Gal(b1-4)GlcNAc(b1-2)Man(a1-6)]Man(b1-4)GlcNAc(b1-4)GlcNAc
Procedure, shortened: as §1

[23] = biological target: Gal(b1-4)GlcNAc(b1-2)Man(a1-3)[Man(a1-6)]Man(b1-4)GlcNAc(b1-4)GlcNAc
Procedure, shortened: as §1

[24] = biological target: Gal(b1-4)GlcNAc(b1-2)Man(a1-6)Man(b1-4)GlcNAc(b1-4)GlcNAc
Procedure, shortened: as §1

[25] = biological target: Gal(b1-4)GlcNAc(b1-2)Man(a1-6)[GlcNAc(b1-2)Man(a1-3)]Man(b1-4)GlcNAc(b1-4)GlcNAc
Procedure, shortened: as §1

[26] = biological target: Gal(b1-4)GlcNAc(b1-2)Man(a1-6)[Man(a1-3)]Man(b1-4)GlcNAc(b1-4)GlcNAc
Procedure, shortened: as §1

[27] = biological target: Gal(b1-4)GlcNAc(b1-2)[Gal(b1-4)GlcNAc(b1-4)]Man(a1-3)[Gal(b1-4)GlcNAc(b1-2)Man(a1-6)]Man(b1-4)GlcNAc(b1-4)GlcNAc
Procedure, shortened: as §1

[28] = biological target: Gal(b1-4)GlcNAc(b1-2)[Gal(b1-4)GlcNAc(b1-4)]Man(a1-3)[Gal(b1-4)GlcNAc(b1-2)[Gal(b1-4)GlcNAc(b1-6)]Man(a1-6)]Man(b1-4)GlcNAc(b1-4)GlcNAc
Procedure, shortened: as §1

[29] = biological target: Gal(b1-4)GlcNAc(b1-2)[Gal(b1-4)GlcNAc(b1-4)]Man(a1-3)[GlcNAc(b1-4)][Gal(b1-4)GlcNAc(b1-2)Man(a1-6)]Man(b1-4)GlcNAc(b1-4)GlcNAc
Procedure, shortened: as §1

[30] = biological target: Gal(b1-4)GlcNAc(b1-2)[Gal(b1-4)GlcNAc(b1-4)]Man(a1-3)[GlcNAc(b1-4)][Gal(b1-4)GlcNAc(b1-2)[Gal(b1-4)GlcNAc(b1-6)]Man(a1-6)]Man(b1-4)GlcNAc(b1-4)GlcNAc
Procedure, shortened: as §1

[31] = biological target: Gal(b1-4)GlcNAc(b1-2)[Gal(b1-4)GlcNAc(b1-6)]Man(a1-6)[Gal(b1-4)GlcNAc(b1-2)Man(a1-3)]Man(b1-4)GlcNAc(b1-4)GlcNAc
Procedure, shortened: as §1

B1: SUN4P (Saccharomyces cerevisiae), P53616 (protein)
chain: MGSSHHHHHHSSGLVPRGSHNGSIYGDLADFSGPYEKFEDGTIPCGQFPSGQGVIPISWLDEGGWSGVENTDTSTGGSCKEGSYCSYACQPGMSKTQWPSDQPSDGRSIGGLLCKDGYLYRSNTDTDYLCEWGVDAAYVVSELSNDVAICLTDYPGTENMVIPTYVQAGDSLPLTVVDQDTYYTWQGLKTSAQYYVNNAGISVEDACVWGSSSSGVGNWAPLNFGAGSSDGVAYLSLIPNPNNGNALNFNVKIVAADDSSTVNGECIYENGSFSGGSDGCTVSVTAGKAKFVLYN
glycan array binding signal (z-score) [1]: 0.933 | glycan array binding signal (z-score) [2]: -0.199 | glycan array binding signal (z-score) (Gal(b1-3)GlcNAc6S): -0.907 | glycan array binding signal (z-score) [3]: -0.04 | glycan array binding signal (z-score) [4]: 1.06 | glycan array binding signal (z-score) [5]: 1.72 | glycan array binding signal (z-score) [6]: -0.128 | glycan array binding signal (z-score) [7]: -1.12 | glycan array binding signal (z-score) [8]: -0.428 | glycan array binding signal (z-score) [9]: 1.15 | glycan array binding signal (z-score) [10]: 2.79 | glycan array binding signal (z-score) [11]: -0.54 | glycan array binding signal (z-score) [12]: 0.439 | glycan array binding signal (z-score) (Gal(b1-4)Gal): -1.58 | glycan array binding signal (z-score) [13]: -1.06 | glycan array binding signal (z-score) [14]: -0.733 | glycan array binding signal (z-score) (Gal(b1-4)Glc): -0.491 | glycan array binding signal (z-score) (Gal(b1-4)Glc6S): -0.263 | glycan array binding signal (z-score) (Gal(b1-4)GlcNAc): -0.158 | glycan array binding signal (z-score) [15]: 0.129 | glycan array binding signal (z-score) (Gal(b1-4)GlcNAc(b1-2)Man): 0.676 | glycan array binding signal (z-score) [16]: -0.274 | glycan array binding signal (z-score) [17]: 0.069 | glycan array binding signal (z-score) [18]: -0.512 | glycan array binding signal (z-score) [19]: -0.486 | glycan array binding signal (z-score) [20]: -0.864 | glycan array binding signal (z-score) [21]: -0.054 | glycan array binding signal (z-score) [22]: 0.103 | glycan array binding signal (z-score) [23]: -0.201 | glycan array binding signal (z-score) [24]: 0.904 | glycan array binding signal (z-score) [25]: 0.524 | glycan array binding signal (z-score) [26]: 1.25 | glycan array binding signal (z-score) [27]: 0.302 | glycan array binding signal (z-score) [28]: -0.954 | glycan array binding signal (z-score) [29]: 0.132 | glycan array binding signal (z-score) [30]: 0.051 | glycan array binding signal (z-score) [31]: -0.913

Source: the supplement of paper PMC8728848
